The exact form of at least one protein or probe is not confirmed. Where cells or extracts were used, other partners may take part.

For the series, the system named is PPARγ/RXR heterodimer. Nature of the series: EMSA. The note with it: dimeric complex only; 100 mM KCl, 40 mM Hepes pH 7.5, 0.5 mM ZnCl2, 4 C; protein in a lysate after overexpression; label: 32P. On the technique in general: A gel shift assay detects complexes by their altered migration in electrophoresis.

In the case of “CAAAACTAGGTCAAAGGTCA (double strand) [DR1]”, the binding result is recorded as “binds”.

The values above are taken from US20020081719.
